Counter-ions that a name gives are not always drawn. The list shows a part of the results. Small differences around the control level are noise.
Tested on: hPSC-derived cortical neurons (WA09)
Assay: total neurite length per nucleus (MAP2) z-score; higher = more neurite growth
Details: 5 µM; treatment: days 7-14 after plating, readout day 21

| Compound | total neurite length per nucleus (z-score) |
| --- | --- |
| CCN(CC)CCOCCOC(=O)C1(c2ccccc2)CCCC1 [Pentoxyverine Citrate] | -0.188 |
| COc1ccc(Cl)cc1C(=O)NCCc1ccc(S(=O)(=O)NC(=O)NC2CCCCC2)cc1 [Glyburide] | 0.0455 |
| Oc1ccc(-c2nc(-c3ccc(F)cc3)c(-c3ccncc3)[nH]2)cc1 | 0.376 |
| CN(C)C(=O)C(CCN1CCC(O)(c2ccc(Cl)cc2)CC1)(c1ccccc1)c1ccccc1 [Loperamide HCl] | -1.41 |
| CCCCNc1cc(C(=O)O)cc(S(N)(=O)=O)c1Oc1ccccc1 [Bumetanide] | 0.503 |
| Nc1ccc(S(=O)(=O)c2ccc(N)cc2)cc1 [Dapson] | 0.875 |
| CNC(=O)[C@@H](NC(=O)[C@H](CC(C)C)[C@H](O)C(=O)NO)C(C)(C)C [Marimastat(BB-2516)] | -0.381 |
| Cc1cccc(N(C)C(=S)Oc2ccc3ccccc3c2)c1 [Tolnaftate] | 0.387 |
| CCn1c(=O)c(-c2cc[nH]n2)cc2c(C)nc(N)nc21 | -0.19 |
| OC[C@@H](O)[C@@H](O)[C@H](O)[C@H](O)CO [D-Mannitol] | 0.0518 |
| OCc1cc(C(O)CNCCCCCCOCCCCc2ccccc2)ccc1O (centres undefined) [Salmeterol Xinafoate] | -0.543 |
| C#C[C@]1(O)CC[C@H]2[C@@H]3CCc4cc(OC)ccc4[C@H]3CC[C@@]21C [Mestranol] | 0.462 |
| COc1cc(Nc2ncc(F)c(Nc3ccc4c(n3)N(COP(=O)(O)O)C(=O)C(C)(C)O4)n2)cc(OC)c1OC [Fostamatinib (R788)] | 0.0418 |
| CCn1cc(C(=O)O)c(=O)c2ccc(C)nc21 [Nalidixic acid] | 1.08 |
| O=C(O)c1cc(/N=N/c2ccc(O)c(C(=O)O)c2)ccc1O [Olsalazine Sodium] | -0.387 |
| O=C(O)c1ccccc1 [Benzoic Acid] | -0.284 |
| CNC(=O)c1ccc(N2C(=S)N(c3cnc(C#N)c(C(F)(F)F)c3)C(=O)C23CCC3)cc1F | -1.21 |
| COC(=O)[C@H](CCSC)NC(=O)c1ccc(NC[C@@H](N)CS)cc1-c1ccccc1 | 0.103 |
| C=C1/C(=C\C=C2/CCC[C@]3(C)[C@@H]([C@H](C)/C=C/[C@H](C)C(C)C)CC[C@@H]23)C[C@@H](O)C[C@@H]1O [Doxercalciferol] | 0.00194 |
| Cc1cnc(Nc2ccc(OCCN3CCCC3)cc2)nc1Nc1cccc(S(=O)(=O)NC(C)(C)C)c1 | -1.25 |

Random excerpt: three compounds from above.

| Compound | total neurite length per nucleus (z-score) |
| --- | --- |
| OCc1cc(C(O)CNCCCCCCOCCCCc2ccccc2)ccc1O (centres undefined) [Salmeterol Xinafoate] | -0.543 |
| CCn1c(=O)c(-c2cc[nH]n2)cc2c(C)nc(N)nc21 | -0.19 |
| CCCCNc1cc(C(=O)O)cc(S(N)(=O)=O)c1Oc1ccccc1 [Bumetanide] | 0.503 |

Later entries.

| Compound | total neurite length per nucleus (z-score) |
| --- | --- |
| C#Cc1cccc(Nc2ncnc3cc(OCCOC)c(OCCOC)cc23)c1 [Erlotinib] | 0.411 |
| O=c1[nH]c(C2CCCN2)nc2c1oc1ccc(Cl)cc12 (centres undefined) | -1.19 |
| C[C@H]1C[C@H]2[C@@H]3CCC4=CC(=O)C=C[C@]4(C)[C@H]3C(=O)C[C@]2(C)[C@@]1(O)C(=O)CO [Meprednisone] | 0.266 |
| NS(=O)(=O)c1cc(Cl)c(Cl)c(S(N)(=O)=O)c1 [Dichlorphenamide] | 0.828 |
| CCOc1ccccc1OCCN[C@H](C)Cc1ccc(OC)c(S(N)(=O)=O)c1 [Tamsulosin hydrochloride] | -0.704 |
| CC(C)NCC(O)COc1ccc(COCCOC(C)C)cc1 (centres undefined) [Bisoprolol fumarate] | -1.01 |
| CN(C)c1ccc(C(=C2C=CC(=[N+](C)C)C=C2)c2ccc(N(C)C)cc2)cc1 [Crystal Violet] | -4.4 |
| Cc1csc(-c2nnc(Nc3ccc(Oc4ncccc4-c4ccnc(N)n4)cc3)c3ccccc23)c1 | 0.379 |
| CN1CC2c3ccccc3Oc3ccc(Cl)cc3C2C1 (centres undefined) [Asenapine] | -1.76 |
| O=c1ccc2ccc(OCCCCN3CCN(c4cccc5sccc45)CC3)cc2[nH]1 [Brexpiprazole] | -0.0637 |
| CN1CCC(CNc2ccc3ncc(-c4cccc(OC(F)(F)F)c4)n3n2)CC1 [SGI-1776 free base] | -3.87 |
| C/C(=N\NC(=S)N1CCC1)c1ccccn1 | -4.38 |
| C=C(C)[C@@H]1CC[C@]2(C(=O)O)CC[C@]3(C)[C@H](CC[C@@H]4[C@@]5(C)CC[C@H](O)C(C)(C)[C@@H]5CC[C@]43C)[C@@H]12 [Betulinic acid] | -1.13 |
| CCn1cc(C(=O)O)c(=O)c2cc(F)c(N3CCNCC3)nc21 [Enoxacin] | -1.76 |
| CN(C)CCOC(C)(c1ccccc1)c1ccccn1 (centres undefined) [Doxylamine Succinate] | 0.0825 |
| O=C(NCC(=O)N1CCCC1)Nc1ccc2cnccc2c1 | 1.78 |
| COc1ccc(C(=O)CC(=O)c2ccc(C(C)(C)C)cc2)cc1 [Avobenzone] | 0.979 |
| O=C1[C@H](Cc2ccc(O)cc2)N2C(=O)CCN(C(=O)NCc3ccccc3)[C@H]2CN1Cc1cccc2ccccc12 | -0.147 |
| CC(C)(C(=O)O)c1ccc(C(O)CCCN2CCC(C(O)(c3ccccc3)c3ccccc3)CC2)cc1 (centres undefined) [Fexofenadine HCl] | -0.0971 |
